The text below walks through data of publication PMC11563578.

These are yes or no findings as the source states them, for the method shown. Some binding calls cover weakened binding; strength is not graded here.

This test addresses T1, TATA box binding protein (TBP) (UniProt P13393).
T1 sequence: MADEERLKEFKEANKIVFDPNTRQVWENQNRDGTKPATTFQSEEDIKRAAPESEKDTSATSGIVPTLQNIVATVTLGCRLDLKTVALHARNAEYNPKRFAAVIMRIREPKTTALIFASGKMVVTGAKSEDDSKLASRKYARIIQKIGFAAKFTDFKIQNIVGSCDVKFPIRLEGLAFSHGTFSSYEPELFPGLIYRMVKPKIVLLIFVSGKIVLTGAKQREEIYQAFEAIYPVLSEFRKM
The test is described as follows: cross-linking; 20 ug of each purified protein in 100 ul 20 mM HEPES-NaOH pH 7.9, 100 mM KOAc, 30 min at RT as TBP/TFIIA, TBP/TFIIB (C1q2) and TBP/TFIIA/TFIIB (C2q2); ~1 mM Q2linker for 2 hr; pooled, trypsin, SCX, MS (pLink2 and Nexus); both purified.

B1: TFIIA (TOA1/TOA2) (complex, UniProt P32773 1-286; P32774 1-122)
chain 1: MSNAEASRVYEIIVESVVNEVREDFENAGIDEQTLQDLKNIWQKKLTETKVTTFSWDNQFNEGNINGVQNDLNFNLATPGVNSSEFNIKEENTGNEGLILPNINSNNNIPHSGETNINTNTVEATNNSGATLNTNTSGNTNADVTSQPKIEVKPEIELTINNANITTVENIDDESEKKDDEEKEEDVEKTRKEKEQIEQVKLQAKKEKRSALLDTDEVGSELDDSDDDYLISEGEEDGPDENLMLCLYDKVTRTKARWKCSLKDGVVTINRNDYTFQKAQVEAEWV
chain 2: MAVPGYYELYRRSTIGNSLVDALDTLISDGRIEASLAMRVLETFDKVVAETLKDNTQSKLTVKGNLDTYGFCDDVWTFIVKNCQVTVEDSHRDASQNGSGDSQSVISVDKLRIVACNSKKSE
B1: the binding result is recorded as “binds”.

B2: TFIIB (protein, UniProt P29055 1-345)
chain: MMTRESIDKRAGRRGPNLNIVLTCPECKVYPPKIVERFSEGDVVCALCGLVLSDKLVDTRSEWRTFSNDDHNGDDPSRVGEASNPLLDGNNLSTRIGKGETTDMRFTKELNKAQGKNVMDKKDNEVQAAFAKITMLCDAAELPKIVKDCAKEAYKLCHDEKTLKGKSMESIMAASILIGCRRAEVARTFKEIQSLIHVKTKEFGKTLNIMKNILRGKSEDGFLKIDTDNMSGAQNLTYIPRFCSHLGLPMQVTTSAEYTAKKCKEIKEIAGKSPITIAVVSIYLNILLFQIPITAAKVGQTLQVTEGTIKSGYKILYEHRDKLVDPQLIANGVVSLDNLPGVEKK
Regarding B2, the binding entry is listed as “binds”.
